This series in a line: general procedure: Boc solid-phase peptide synthesis; PAM Methionine, t-BOC resin (0.67 mmol/gm); BOC amino acid symmetric anhydrides (DCC); HOBZ for Asn. The conditions noted are these: cyclisation step, on linear precursor.

“Cyclo (D-Ala-L-Ala-Ser-Ser-Ser-Asn-Tyr-Met)” gave a cyclisation yield of 31%.

The values above are taken from US5162499A (Heterocyclic Research, Inc., priority 1991, dated 1992).
